Experimental data published in PubChem BioAssay AID2718 (Broad Institute, 2010).
Out of some 320,000 compounds screened, about 480 (0.15%) were called active. Inconclusive results, whose numbers are uncertain, are shown with a selection of clear calls. Rule as the data show it: active = inhibition above about 26% (passing the limit was not always enough); inconclusive = no clear call, values can overlap the other calls.

Sequences of proteins named here, by UniProt entry; tags and fusion partners are left off. A change or cut given only in a name is not applied to a line headed by its entry.
UniProt O15379: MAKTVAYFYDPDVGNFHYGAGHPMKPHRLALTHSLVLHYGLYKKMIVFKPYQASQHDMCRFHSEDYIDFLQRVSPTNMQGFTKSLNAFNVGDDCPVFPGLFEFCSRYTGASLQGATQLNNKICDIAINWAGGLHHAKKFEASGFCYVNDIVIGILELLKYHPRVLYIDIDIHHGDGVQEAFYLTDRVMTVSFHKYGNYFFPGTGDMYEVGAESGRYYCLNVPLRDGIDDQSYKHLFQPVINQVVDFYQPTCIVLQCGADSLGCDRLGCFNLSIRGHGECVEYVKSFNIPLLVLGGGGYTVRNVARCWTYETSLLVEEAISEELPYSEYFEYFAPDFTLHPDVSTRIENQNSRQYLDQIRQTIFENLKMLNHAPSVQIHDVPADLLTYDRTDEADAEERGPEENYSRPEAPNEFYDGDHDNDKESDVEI

biological target: Histone deacetylase 3 (Homo sapiens) (UniProt O15379); assay: HDAC3 deacetylase inhibitors, primary screen, biochemical, fluorescence, cell-free homogeneous (AID 2718); details: recombinant HDAC3, fluorogenic peptide/trypsin coupled, at 8.3 µM, stronger effect = higher value

Q: For `O=C(Nc1ccccc1N1CCCC1)c1cccc(F)c1`, which inhibition is on record?
A: inactive: 1.71%

Q: With `Cc1cccc(C)c1Nc1nnc(SCC(=O)c2ccc(Br)s2)s1` as the compound, how does the inhibition read?
A: active: 27%

Q: How did the inhibition turn out when `COc1ccc(CCNC(=O)C2CC(c3ccc(C(F)(F)F)cc3)=NO2)cc1` (stereo not drawn) was run?
A: inconclusive: 16.1%

Q: For `CCOc1ccccc1/C=C/c1onc(C)c1S(=O)(=O)N1CCC(C(=O)NC(C)C)CC1`, which inhibition is on record?
A: inconclusive: 14.6%

Q: How did the inhibition turn out when `Cc1nc([N+](=O)[O-])cn1CC(=O)c1ccc(Br)cc1` was run?
A: inconclusive: 17.8%

Q: How did the inhibition turn out when `C/C(=N\NC(=O)c1ccccc1C)c1ccc(N2CCOCC2)cc1` was run?
A: inconclusive: 15.1%

Q: `COCCN1C(=O)N[C@@H](c2cccc(F)c2)C(C(=O)OC)=C1C` was tested. Which inhibition did it give?
A: inactive: -4.04%

Q: How did the inhibition turn out when `COc1cc(CNc2ccc(N3CCN(C(C)=O)CC3)cc2)ccc1OCc1ccc(F)cc1` was run?
A: inconclusive: 18.4%

Q: How did the inhibition turn out when `CCOC(=O)C1CCN(c2c(NCc3ccc(C(=O)Nc4ccc(C)cc4)cc3)c(=O)c2=O)CC1` was run?
A: inactive: 6.23%

Q: `N#C/C(=C\c1ccc(O)c(O)c1)S(=O)(=O)c1ccccc1` was tested. Which inhibition did it give?
A: inconclusive: 24.8%

Q: Which inhibition does the source give for `COC(=O)C1=C(C)N(Cc2ccccc2)C(=NCc2cccc(C(F)(F)F)c2)N[C@H]1c1cccc(C(F)(F)F)c1` here?
A: inactive: 18.3%

Q: Which inhibition does the source give for `O=C(O)CCCn1cc(NC(=O)COc2ccccc2)cn1` here?
A: inactive: -3.36%

Q: Which inhibition does the source give for `c1ccc(-c2nnc3sc(CN4CCc5ccccc54)cn23)cc1` here?
A: inconclusive: 16.4%

Q: For `COc1cccc(NC(=O)COC(=O)c2ccccc2C(=O)N(C)c2ccccc2)c1`, which inhibition is on record?
A: inactive: -1.28%

Q: With `COc1ccccc1NC(=O)c1ccc(Br)o1` as the compound, how does the inhibition read?
A: inactive: -2.39%

Q: Which inhibition does the source give for `COc1ccc(-c2nc(NC(=O)C3CC(=O)N(Cc4ccco4)C3)sc2C)cc1` (stereo not drawn) here?
A: inconclusive: 30%

Q: Which inhibition does the source give for `Oc1ccc2ccccc2c1C=Nc1ccc(Cl)cn1` here?
A: inconclusive: 17.6%

Q: With `O=C1c2[nH]nc(-c3ccccc3O)c2C(c2cccc(Cl)c2)N1CC1CCCO1` (stereo not drawn) as the compound, how does the inhibition read?
A: inconclusive: 25.2%

Q: Which inhibition does the source give for `CCn1c(=NC(=O)CSC(C)=O)sc2cc(F)ccc21` here?
A: inactive: 6.03%

Q: How did the inhibition turn out when `Cn1cc(CN2CCCC(CNC(=O)c3ccc4c(c3)OCO4)C2)c2ccccc21` (stereo not drawn) was run?
A: inconclusive: 19.8%

Q: `CCN(CC)c1ccc(/C=N/NC(=O)CNC(=O)c2ccccn2)cc1` was tested. Which inhibition did it give?
A: inactive: -3.76%

Q: For `O=C(Nc1cc(Cl)ccc1-n1cncn1)c1ccc([N+](=O)[O-])s1`, which inhibition is on record?
A: inactive: 6.25%

Q: For `FC(F)(F)c1cccc(NC(=S)NNC(=S)Nc2cccc(C(F)(F)F)c2)c1`, which inhibition is on record?
A: inconclusive: 29.2%

Q: How did the inhibition turn out when `Cc1ccc(NC(=O)CN(C)S(=O)(=O)c2cccc3nsnc23)cc1` was run?
A: inactive: 3.65%

Q: For `COc1ccc(NC(=O)CN(C)C(=O)/C=C/c2cn(-c3ccccc3)nc2-c2cccs2)cc1`, which inhibition is on record?
A: inconclusive: 22%

Q: Which inhibition does the source give for `O=C(CCl)N(CCc1ccccc1)CCc1ccccc1` here?
A: inconclusive: 18.6%

Q: How did the inhibition turn out when `CC(=O)Nc1nc(CCC(C)C)cc2c1c(=O)oc1ccccc12` was run?
A: inconclusive: 25.1%

Q: How did the inhibition turn out when `Cc1ccc(NCN2C(=O)C3C4C=CC(C4)C3C2=O)cc1` (stereo not drawn) was run?
A: inactive: -11.9%

Q: For `Cc1c(NC(=O)OCCNC(=O)Nc2ccccc2)sc(=S)n1C`, which inhibition is on record?
A: inconclusive: 13.8%

Q: `Cc1cc(C)c(C(=O)/C=C/c2ccc(C(C)C)cc2)c(=O)[nH]1` was tested. Which inhibition did it give?
A: inconclusive: 22.6%

Q: For `CC(C)N(C(=O)[C@H]1CC(CC(=O)NCc2cccc(C(F)(F)F)c2)C(=O)N2CCc3c([nH]c4ccccc34)[C@]12C)C(C)C` (stereo partly drawn), which inhibition is on record?
A: inconclusive: 33.7%

Q: Which inhibition does the source give for `CN(C)CCSc1nnc2sc3ccccc3n12` here?
A: inactive: -1.49%

Q: Which inhibition does the source give for `S=c1[nH]nc2c3c4c(sc3ncn12)CCCC4` here?
A: active: 42.4%

Q: Which inhibition does the source give for `COc1ccc(N2C(=O)/C(=C\c3ccco3)N=C2SCC(=O)NC(C)C)cc1Cl` here?
A: inconclusive: 15.4%

Q: For `COCC(=O)Nc1ccc2c(c1)OCC(=O)N2Cc1ccccc1F`, which inhibition is on record?
A: inconclusive: 17.1%

Q: How did the inhibition turn out when `CC(C)C[C@H](NC(=O)c1nc[nH]c1C(=O)N(C)Cc1ccccc1)C(=O)OC(C)(C)C` was run?
A: inconclusive: 17.3%

Q: With `Cc1ccc2c(c1)N(CC(=O)N1CCCCCC1)C(=O)CO2` as the compound, how does the inhibition read?
A: inconclusive: 19%

Q: With `Cc1ccc(CNC(=O)CCS(=O)(=O)c2ccc3c(c2)CC(C)N3C(=O)C2CC2)cc1` (stereo not drawn) as the compound, how does the inhibition read?
A: inconclusive: 15%

Q: For `CCC(C)[C@H](NC(=O)[C@@H]1CSC2c3ccccc3C(=O)N21)C(=O)NCc1ccco1` (stereo partly drawn), which inhibition is on record?
A: inactive: 3.48%

Q: Which inhibition does the source give for `CC1(C)CC2CC(C)(CN2C(=O)COC(=O)c2ccc(Cl)cc2N)C1` (stereo not drawn) here?
A: inconclusive: 4.86%

Q: `CC1CC(C(F)(F)F)n2nc(C(=O)O)cc2N1` (stereo not drawn) was tested. Which inhibition did it give?
A: inconclusive: 8.98%

Q: `C[n+]1cn(Cc2cc(Cl)ccc2OC(F)F)c2ccccc21` was tested. Which inhibition did it give?
A: inactive: 2.77%

Q: Which inhibition does the source give for `Cc1ccc(-n2nnnc2SCC(=O)N(CC(C)C)c2c(N)n(CC(C)C)c(=O)[nH]c2=O)cc1` here?
A: inconclusive: 15.2%
